Results reported in patent publication US12595239B2, “Substituted isoxazoline derivatives” (BASF SE, priority 2021, dated 2026).
Some entries share one result that the patent states for a list of compounds. At least one compound was matched to its structure with a doubt left.

Columns and labels:
Type in all cases: in vivo
Dichromothrips corbetti = assay: B.7 Orchid Thrips, floral-immersion test; conditions: 300 ppm; adult thrips, 72 hours after treatment
In short: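 Orchid petals were dipped in compound diluted in 1:1 acetone:water with 0.01% v/v Kinetic, dried, then sealed with about 20 lab-colony adult thrips. Arenas were held in the dark at about 28 °C, and percent mortality was scored 72 h after treatment.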

Myzus persicae = assay: B.3 Green Peach Aphid (mixed life stages), systemic artificial diet test; conditions: 2500 ppm; treated aphid diet, 3 days
In short: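 Compounds, formulated in 25% DMSO/75% water, were mixed at several concentrations into liquid artificial diet under a membrane, two replicates. 5–8 adult aphids fed on treated diet for 3 days at about 23±1 °C, 50±5% RH. Mortality and fecundity were scored visually.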

Nephotettix virescens = assay: B.9 Rice Green Leafhopper, rice seedling spray test; conditions: 300 ppm; adults, after 72 hours
Nezara viridula = assay: B.8 Green Soldier Stink Bug, soybean pod spray test; conditions: 300 ppm; late 3rd instar, after 5 days
Heliothis virescens = assay: B.4 Tobacco Budworm, microtiter plate diet test; conditions: 2500 ppm; egg and larval mortality, 5 days
In short: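 Compounds in 25% DMSO/75% water sprayed at various concentrations onto diet in microtiter wells each holding 15-25 H. virescens eggs, two replicates. Plates kept 5 days at about 28±1 °C and 80±5% relative humidity; egg and larval mortality then scored visually.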

[1] = test system: Trialeurodes vaporarirorum; assay: B.2 Greenhouse Whitefly, microtiter plate eggplant leaf disk test; conditions: 2500 ppm; mortality of hatched crawlers, 6 days
Experimental: For evaluating control of Greenhouse Whitefly, the test unit consisted of 96-well-microtiter plates containing a leaf disk of eggplant leaf disk with Whitefly eggs. The compounds or mixtures were formulated using a solution containing 75% water and 25% DMSO. Different concentrations of formulated were sprayed onto the insect diet at 2.5 μl, using a custom-built micro atomizer, at two replications. After application, microtiter plates were incubated at 23±1° C., 65±5% RH for 6 days. Mortality of hatched crawlers was then visually assessed.

Plutella xylostella = assay: B.6 Diamond Back Moth, cabbage leaf disc dip test; conditions: 300 ppm; 3rd instar larvae, 72 hours after treatment
In short: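 Cabbage leaf discs were dipped in compound in 1:1 water:acetone with 0.01% surfactant, air-dried, then infested with ten 3rd instar larvae. Mortality read at 72 h after treatment, with feeding damage scored on a 0–100% scale.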

Anthonomus grandis = assay: B.1 Boll weevil (Anthonomus grandis), 96-well microtiter plate diet test; conditions: 2500 ppm; egg and larval mortality, 5 days
Aedes aegypti = conditions: 2500 ppm; larval mortality, 2 days
Bemisia argentifolii = assay: B.12 Silverleaf Whitefly (adults), cotton plant spray test; conditions: 300 ppm, 3 days after treatment

Measured: mortality in comparison with untreated controls

O=C(NC1CC1)c1cc(OC2=NOC(c3cc(Cl)c(F)c(Cl)c3)(C(F)(F)F)C2)ccc1Cl (centres unmarked) [II-4]
at least 75%: all assays above

O=C(Nc1ncc(F)cc1F)c1cc(NC2=NOC(c3cc(Cl)cc(Cl)c3)(C(F)(F)F)C2)ccc1Cl (centres unmarked) [I-174]
at least 75%: all assays above
